Where “and” joins values, the source holds several entries; their conditions need not be identical. Equal entries are not always repeated. At least one structure is not confirmed: it was looked up by name or label, or the drawing left a doubt.
Tested on: dogs diagnosed with idiopathic epilepsy
Assay: Efficacy of gabapentin vs phenobarbital against idiopathic epilepsy in dogs (seizure episodes, adverse effects)
Format: in vivo
Details: G0-E, phenobarbital 2 mg/Kg every 12 hours; individual dogs
Experimental: a) G0-E Group: treated with phenobarbital at dose of 2 mg/Kg of body weight, every 12 hours.
b) G1-E Study Group: treated with gabapentin of 10 mg/Kg of body weight, divided 3 times a day by oral administration.
c) G2-E Study Group: treated with gabapentin of 20 mg/Kg of body weight, divided 3 times a day by oral administration.
Patients were monitored for 3 consecutive months, quantifying seizure episodes for each of the patients, obtaining the following: […]

CCC1(c2ccccc2)C(=O)NC(=O)NC1=O [Phenobarbital, phenobarbital]
Changes in the type of seizure: CLONIC TONIC (3×) and NONE (3×) and PARTIAL CONVULSIONS (4×)

Source: US10610498B2, “Oral veterinary composition with gabapentin” (priority 2015, dated 2020)
